Measured values as given in PMC11171801.

Chains of the proteins cited; added tags and fusions are not shown. Lines headed by an entry give the natural chain unless they say otherwise; changes in a name come on top. Residues count along the entry.
UniProt Q9UQB8: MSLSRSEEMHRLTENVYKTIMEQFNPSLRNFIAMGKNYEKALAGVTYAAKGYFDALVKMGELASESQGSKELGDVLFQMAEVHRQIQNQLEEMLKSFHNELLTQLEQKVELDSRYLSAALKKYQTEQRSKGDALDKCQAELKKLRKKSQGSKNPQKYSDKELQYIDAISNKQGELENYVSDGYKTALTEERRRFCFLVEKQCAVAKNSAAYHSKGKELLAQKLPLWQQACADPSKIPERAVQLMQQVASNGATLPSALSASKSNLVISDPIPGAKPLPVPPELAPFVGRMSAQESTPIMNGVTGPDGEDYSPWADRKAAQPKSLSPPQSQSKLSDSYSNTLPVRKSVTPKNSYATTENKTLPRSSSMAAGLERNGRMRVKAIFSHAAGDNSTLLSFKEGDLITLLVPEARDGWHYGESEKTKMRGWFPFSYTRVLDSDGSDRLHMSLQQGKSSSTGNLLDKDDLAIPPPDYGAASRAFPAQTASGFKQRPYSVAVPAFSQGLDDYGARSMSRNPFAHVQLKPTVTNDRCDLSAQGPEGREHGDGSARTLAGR
UniProt Q9NZZ3: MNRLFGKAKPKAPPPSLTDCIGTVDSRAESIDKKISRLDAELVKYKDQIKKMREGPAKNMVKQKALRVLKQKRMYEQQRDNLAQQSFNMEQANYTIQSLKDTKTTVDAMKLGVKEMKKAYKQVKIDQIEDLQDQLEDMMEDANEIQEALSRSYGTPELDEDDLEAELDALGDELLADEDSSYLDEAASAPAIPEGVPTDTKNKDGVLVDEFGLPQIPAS
UniProt P35222: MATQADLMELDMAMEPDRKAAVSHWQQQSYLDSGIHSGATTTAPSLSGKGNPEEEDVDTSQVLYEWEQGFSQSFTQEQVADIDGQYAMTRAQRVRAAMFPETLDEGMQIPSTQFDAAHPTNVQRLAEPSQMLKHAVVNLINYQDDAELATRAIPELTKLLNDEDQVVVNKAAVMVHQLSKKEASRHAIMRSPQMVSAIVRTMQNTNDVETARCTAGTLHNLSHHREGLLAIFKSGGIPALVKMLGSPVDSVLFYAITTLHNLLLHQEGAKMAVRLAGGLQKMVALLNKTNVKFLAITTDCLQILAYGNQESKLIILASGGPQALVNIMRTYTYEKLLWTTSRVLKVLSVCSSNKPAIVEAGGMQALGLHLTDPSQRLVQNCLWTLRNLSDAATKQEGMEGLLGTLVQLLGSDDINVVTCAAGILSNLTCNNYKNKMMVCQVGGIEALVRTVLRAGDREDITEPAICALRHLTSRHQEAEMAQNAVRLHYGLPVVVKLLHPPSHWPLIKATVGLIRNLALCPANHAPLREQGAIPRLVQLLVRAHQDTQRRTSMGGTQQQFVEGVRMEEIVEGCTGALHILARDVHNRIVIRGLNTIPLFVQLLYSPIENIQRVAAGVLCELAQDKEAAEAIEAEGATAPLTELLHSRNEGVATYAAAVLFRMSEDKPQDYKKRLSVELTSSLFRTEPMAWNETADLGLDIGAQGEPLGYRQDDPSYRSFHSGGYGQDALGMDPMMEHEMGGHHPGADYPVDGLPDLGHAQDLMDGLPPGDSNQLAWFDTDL
UniProt Q9UJU6: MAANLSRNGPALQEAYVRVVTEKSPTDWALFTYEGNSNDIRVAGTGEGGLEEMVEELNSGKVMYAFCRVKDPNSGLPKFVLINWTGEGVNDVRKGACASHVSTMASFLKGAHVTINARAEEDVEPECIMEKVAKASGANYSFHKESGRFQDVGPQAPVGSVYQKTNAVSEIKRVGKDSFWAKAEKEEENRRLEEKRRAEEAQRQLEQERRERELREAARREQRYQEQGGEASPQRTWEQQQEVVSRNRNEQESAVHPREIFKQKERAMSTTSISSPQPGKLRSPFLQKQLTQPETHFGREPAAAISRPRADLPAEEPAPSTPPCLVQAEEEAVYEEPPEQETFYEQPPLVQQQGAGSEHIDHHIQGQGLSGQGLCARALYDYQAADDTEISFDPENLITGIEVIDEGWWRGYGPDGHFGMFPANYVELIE
UniProt Q8N8S7: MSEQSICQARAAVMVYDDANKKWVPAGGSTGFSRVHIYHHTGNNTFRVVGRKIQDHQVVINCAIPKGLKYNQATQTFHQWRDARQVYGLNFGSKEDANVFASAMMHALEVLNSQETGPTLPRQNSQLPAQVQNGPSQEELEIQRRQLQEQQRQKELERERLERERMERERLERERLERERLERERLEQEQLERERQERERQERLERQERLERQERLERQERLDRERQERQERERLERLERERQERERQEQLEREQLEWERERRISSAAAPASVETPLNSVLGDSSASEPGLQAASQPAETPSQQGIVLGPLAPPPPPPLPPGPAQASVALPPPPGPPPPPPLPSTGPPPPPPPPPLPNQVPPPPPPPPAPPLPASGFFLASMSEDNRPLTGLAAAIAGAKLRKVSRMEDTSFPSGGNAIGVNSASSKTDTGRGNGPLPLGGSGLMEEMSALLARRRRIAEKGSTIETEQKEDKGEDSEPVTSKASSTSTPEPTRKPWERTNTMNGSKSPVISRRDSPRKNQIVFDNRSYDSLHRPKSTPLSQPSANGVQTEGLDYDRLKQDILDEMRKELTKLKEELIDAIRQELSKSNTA
UniProt Q96AC1: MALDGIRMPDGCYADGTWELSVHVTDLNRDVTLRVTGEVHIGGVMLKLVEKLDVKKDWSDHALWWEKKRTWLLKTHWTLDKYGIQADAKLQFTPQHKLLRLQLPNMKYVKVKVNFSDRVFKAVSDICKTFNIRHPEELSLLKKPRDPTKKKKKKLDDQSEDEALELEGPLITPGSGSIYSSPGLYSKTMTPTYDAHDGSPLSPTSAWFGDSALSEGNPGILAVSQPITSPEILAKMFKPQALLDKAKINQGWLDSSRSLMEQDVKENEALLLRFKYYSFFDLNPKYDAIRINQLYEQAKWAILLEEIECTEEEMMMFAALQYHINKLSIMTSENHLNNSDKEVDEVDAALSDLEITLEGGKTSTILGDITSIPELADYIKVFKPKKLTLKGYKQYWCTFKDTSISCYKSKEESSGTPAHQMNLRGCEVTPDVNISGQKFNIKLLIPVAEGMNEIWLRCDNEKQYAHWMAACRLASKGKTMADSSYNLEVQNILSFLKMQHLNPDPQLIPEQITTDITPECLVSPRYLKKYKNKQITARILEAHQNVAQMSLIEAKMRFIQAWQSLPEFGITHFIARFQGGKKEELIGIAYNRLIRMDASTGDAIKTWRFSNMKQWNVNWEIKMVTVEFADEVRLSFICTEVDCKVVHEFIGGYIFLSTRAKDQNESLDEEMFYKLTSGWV
UniProt Q9NQS3, residues 58-549: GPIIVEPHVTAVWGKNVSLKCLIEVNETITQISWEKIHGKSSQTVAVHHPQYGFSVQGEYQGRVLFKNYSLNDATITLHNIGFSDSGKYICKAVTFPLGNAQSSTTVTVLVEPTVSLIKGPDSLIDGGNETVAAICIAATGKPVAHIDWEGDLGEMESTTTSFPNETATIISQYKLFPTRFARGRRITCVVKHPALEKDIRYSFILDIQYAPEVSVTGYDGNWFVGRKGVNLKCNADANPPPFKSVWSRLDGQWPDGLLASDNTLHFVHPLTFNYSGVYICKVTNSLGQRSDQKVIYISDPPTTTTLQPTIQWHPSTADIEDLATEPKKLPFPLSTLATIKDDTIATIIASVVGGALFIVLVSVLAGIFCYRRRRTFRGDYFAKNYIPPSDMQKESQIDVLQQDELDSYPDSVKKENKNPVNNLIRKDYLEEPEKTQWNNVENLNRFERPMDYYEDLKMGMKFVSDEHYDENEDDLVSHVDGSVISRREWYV
UniProt O00161: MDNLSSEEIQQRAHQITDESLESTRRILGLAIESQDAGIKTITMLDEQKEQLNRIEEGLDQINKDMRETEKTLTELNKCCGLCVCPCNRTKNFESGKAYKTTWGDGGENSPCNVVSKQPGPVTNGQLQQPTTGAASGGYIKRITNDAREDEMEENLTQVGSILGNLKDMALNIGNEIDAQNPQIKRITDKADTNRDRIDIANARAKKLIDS
UniProt Q13596: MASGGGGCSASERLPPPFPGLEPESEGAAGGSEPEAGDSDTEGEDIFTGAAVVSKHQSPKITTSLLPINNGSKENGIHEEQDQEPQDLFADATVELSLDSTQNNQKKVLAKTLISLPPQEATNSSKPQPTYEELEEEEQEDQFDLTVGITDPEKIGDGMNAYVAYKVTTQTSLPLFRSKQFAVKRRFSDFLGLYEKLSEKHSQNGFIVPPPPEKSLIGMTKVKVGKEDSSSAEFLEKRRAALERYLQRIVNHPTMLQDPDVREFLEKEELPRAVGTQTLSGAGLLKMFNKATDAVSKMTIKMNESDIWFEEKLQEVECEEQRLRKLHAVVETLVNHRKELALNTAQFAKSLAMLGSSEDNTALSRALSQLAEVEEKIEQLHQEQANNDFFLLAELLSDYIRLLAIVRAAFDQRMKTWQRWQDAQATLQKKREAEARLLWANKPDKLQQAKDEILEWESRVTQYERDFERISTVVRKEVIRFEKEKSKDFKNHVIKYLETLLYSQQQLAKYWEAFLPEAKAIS
UniProt Q9Y5X1: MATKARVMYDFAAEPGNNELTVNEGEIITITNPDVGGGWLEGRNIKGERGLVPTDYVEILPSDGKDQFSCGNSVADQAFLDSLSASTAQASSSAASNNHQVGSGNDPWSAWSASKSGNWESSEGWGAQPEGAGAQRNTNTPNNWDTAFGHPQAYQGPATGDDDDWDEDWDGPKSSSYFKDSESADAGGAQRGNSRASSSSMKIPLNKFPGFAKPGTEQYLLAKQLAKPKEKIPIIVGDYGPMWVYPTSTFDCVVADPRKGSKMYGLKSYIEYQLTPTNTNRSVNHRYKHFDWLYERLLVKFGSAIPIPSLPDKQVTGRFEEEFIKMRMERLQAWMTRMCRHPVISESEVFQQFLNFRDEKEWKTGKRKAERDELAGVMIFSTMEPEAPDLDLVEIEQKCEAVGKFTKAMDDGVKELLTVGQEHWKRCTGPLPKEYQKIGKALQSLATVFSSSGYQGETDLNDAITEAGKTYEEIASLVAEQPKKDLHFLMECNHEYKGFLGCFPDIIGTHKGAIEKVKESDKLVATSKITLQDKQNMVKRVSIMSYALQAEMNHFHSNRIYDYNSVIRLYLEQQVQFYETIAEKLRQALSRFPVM
UniProt Q15836: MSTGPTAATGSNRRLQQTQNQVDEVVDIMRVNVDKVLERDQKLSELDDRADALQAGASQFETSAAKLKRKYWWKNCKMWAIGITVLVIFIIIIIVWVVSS
UniProt Q14247: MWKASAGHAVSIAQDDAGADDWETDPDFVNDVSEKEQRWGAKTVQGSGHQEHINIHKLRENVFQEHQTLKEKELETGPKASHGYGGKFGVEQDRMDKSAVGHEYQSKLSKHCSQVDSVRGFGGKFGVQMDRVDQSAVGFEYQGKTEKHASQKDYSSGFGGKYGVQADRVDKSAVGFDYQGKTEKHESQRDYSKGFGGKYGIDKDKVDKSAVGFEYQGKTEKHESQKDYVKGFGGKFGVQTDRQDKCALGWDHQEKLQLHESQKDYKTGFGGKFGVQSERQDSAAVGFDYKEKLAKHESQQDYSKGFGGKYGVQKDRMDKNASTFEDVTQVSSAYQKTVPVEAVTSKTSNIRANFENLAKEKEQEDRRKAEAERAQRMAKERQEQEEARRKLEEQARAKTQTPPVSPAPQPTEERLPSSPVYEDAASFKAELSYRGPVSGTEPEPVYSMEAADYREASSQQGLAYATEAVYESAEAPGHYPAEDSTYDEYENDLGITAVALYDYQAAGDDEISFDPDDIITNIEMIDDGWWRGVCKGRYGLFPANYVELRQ
UniProt P05556: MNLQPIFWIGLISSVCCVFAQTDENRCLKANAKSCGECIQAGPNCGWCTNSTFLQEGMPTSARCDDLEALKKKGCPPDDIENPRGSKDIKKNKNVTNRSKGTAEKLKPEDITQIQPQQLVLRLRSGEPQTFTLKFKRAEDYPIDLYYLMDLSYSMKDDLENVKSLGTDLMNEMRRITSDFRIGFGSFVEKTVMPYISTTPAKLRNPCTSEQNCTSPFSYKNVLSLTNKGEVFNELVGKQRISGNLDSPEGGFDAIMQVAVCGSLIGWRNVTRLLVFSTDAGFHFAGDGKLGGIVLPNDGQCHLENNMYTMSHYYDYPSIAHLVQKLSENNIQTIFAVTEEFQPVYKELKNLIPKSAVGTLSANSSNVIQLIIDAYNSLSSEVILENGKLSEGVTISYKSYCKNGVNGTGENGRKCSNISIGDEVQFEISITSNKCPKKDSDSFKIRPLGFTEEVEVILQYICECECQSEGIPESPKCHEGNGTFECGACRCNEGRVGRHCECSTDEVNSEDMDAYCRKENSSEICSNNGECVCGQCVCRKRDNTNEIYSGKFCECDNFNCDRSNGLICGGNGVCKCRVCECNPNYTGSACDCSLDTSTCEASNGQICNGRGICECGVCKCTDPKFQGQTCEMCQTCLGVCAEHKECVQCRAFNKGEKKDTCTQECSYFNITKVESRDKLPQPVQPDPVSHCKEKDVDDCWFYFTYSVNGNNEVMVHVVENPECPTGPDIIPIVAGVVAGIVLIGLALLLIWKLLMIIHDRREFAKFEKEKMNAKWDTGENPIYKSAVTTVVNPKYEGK

B1: PLS3 (protein, UniProt P13797 1-630)
chain: MDEMATTQISKDELDELKEAFAKVDLNSNGFICDYELHELFKEANMPLPGYKVREIIQKLMLDGDRNKDGKISFDEFVYIFQEVKSSDIAKTFRKAINRKEGICALGGTSELSSEGTQHSYSEEEKYAFVNWINKALENDPDCRHVIPMNPNTDDLFKAVGDGIVLCKMINLSVPDTIDERAINKKKLTPFIIQENLNLALNSASAIGCHVVNIGAEDLRAGKPHLVLGLLWQIIKIGLFADIELSRNEALAALLRDGETLEELMKLSPEELLLRWANFHLENSGWQKINNFSADIKDSKAYFHLLNQIAPKGQKEGEPRIDINMSGFNETDDLKRAESMLQQADKLGCRQFVTPADVVSGNPKLNLAFVANLFNKYPALTKPENQDIDWTLLEGETREERTFRNWMNSLGVNPHVNHLYADLQDALVILQLYERIKVPVDWSKVNKPPYPKLGANMKKLENCNYAVELGKHPAKFSLVGIGGQDLNDGNQTLTLALVWQLMRRYTLNVLEDLGDGQKANDDIIVNWVNRTLSEAGKSTSIQSFKDKTISSSLAVVDLIDAIQPGCINYDLVKSGNLTEDDKHNNAKYAVSMARRIGARVYALPEDLVEVKPKMVMTVFACLMGRGMKRV
B2: MARCKSL1 (protein, UniProt P49006 1-195)
chain: MGSQSSKAPRGDVTAEEAAGASPAKANGQENGHVKSNGDLSPKGEGESPPVNGTDEAAGATGDAIEPAPPSQGAEAKGEVPPKETPKKKKKFSFKKPFKLSGLSFKRNRKEGGGDSSASSPTEEEQEQGEIGACSDEGTAQEGKAAATPESQEPQAKGAEASAASEEEAGPQATEPSTPSGPESGPTPASAEQNE
B3: BAIAP2L1 (protein, UniProt Q9UHR4 1-511)
chain: MSRGPEEVNRLTESTYRNVMEQFNPGLRNLINLGKNYEKAVNAMILAGKAYYDGVAKIGEIATGSPVSTELGHVLIEISSTHKKLNESLDENFKKFHKEIIHELEKKIELDVKYMNATLKRYQTEHKNKLESLEKSQAELKKIRRKSQGSRNALKYEHKEIEYVETVTSRQSEIQKFIADGCKEALLEEKRRFCFLVDKHCGFANHIHYYHLQSAELLNSKLPRWQETCVDAIKVPEKIMNMIEEIKTPASTPVSGTPQASPMIERSNVVRKDYDTLSKCSPKMPPAPSGRAYTSPLIDMFNNPATAAPNSQRVNNSTGTSEDPSLQRSVSVATGLNMMKKQKVKTIFPHTAGSNKTLLSFAQGDVITLLIPEEKDGWLYGEHDVSKARGWFPSSYTKLLEENETEAVTVPTPSPTPVRSISTVNLSENSSVVIPPPDYLECLSMGAAADRRADSARTTSTFKAPASKPETAAPNDANGTAKPPFLSGENPFATVKLRPTVTNDRSAPIIR
B4: CALD1 (protein, UniProt Q05682 1-793)
chain: MDDFERRRELRRQKREEMRLEAERIAYQRNDDDEEEAARERRRRARQERLRQKQEEESLGQVTDQVEVNAQNSVPDEEAKTTTTNTQVEGDDEAAFLERLARREERRQKRLQEALERQKEFDPTITDASLSLPSRRMQNDTAENETTEKEEKSESRQERYEIEETETVTKSYQKNDWRDAEENKKEDKEKEEEEEEKPKRGSIGENQVEVMVEEKTTESQEETVVMSLKNGQISSEEPKQEEEREQGSDEISHHEKMEEEDKERAEAERARLEAEERERIKAEQDKKIADERARIEAEEKAAAQERERREAEERERMREEEKRAAEERQRIKEEEKRAAEERQRIKEEEKRAAEERQRIKEEEKRAAEERQRARAEEEEKAKVEEQKRNKQLEEKKHAMQETKIKGEKVEQKIEGKWVNEKKAQEDKLQTAVLKKQGEEKGTKVQAKREKLQEDKPTFKKEEIKDEKIKKDKEPKEEVKSFMDRKKGFTEVKSQNGEFMTHKLKHTENTFSRPGGRASVDTKEAEGAPQVEAGKRLEELRRRRGETESEEFEKLKQKQQEAALELEELKKKREERRKVLEEEEQRRKQEEADRKLREEEEKRRLKEEIERRRAEAAEKRQKMPEDGLSDDKKPFKCFTPKGSSLKIEERAEFLNKSVQKSSGVKSTHQAAIVSKIDSRLEQYTSAIEGTKSAKPTKPAASDLPVPAEGVRNIKSMWEKGNVFSSPTAAGTPNKETAGLKVGVSSRINEWLTKTPDGNKSPAPKPSDLRPGDVSSKRNLWEKQSVDKVTSPTKV
B5: ESYT1 (protein, UniProt Q9BSJ8 1-1104)
chain: MERSPGEGPSPSPMDQPSAPSDPTDQPPAAHAKPDPGSGGQPAGPGAAGEALAVLTSFGRRLLVLIPVYLAGAVGLSVGFVLFGLALYLGWRRVRDEKERSLRAARQLLDDEEQLTAKTLYMSHRELPAWVSFPDVEKAEWLNKIVAQVWPFLGQYMEKLLAETVAPAVRGSNPHLQTFTFTRVELGEKPLRIIGVKVHPGQRKEQILLDLNISYVGDVQIDVEVKKYFCKAGVKGMQLHGVLRVILEPLIGDLPFVGAVSMFFIRRPTLDINWTGMTNLLDIPGLSSLSDTMIMDSIAAFLVLPNRLLVPLVPDLQDVAQLRSPLPRGIIRIHLLAARGLSSKDKYVKGLIEGKSDPYALVRLGTQTFCSRVIDEELNPQWGETYEVMVHEVPGQEIEVEVFDKDPDKDDFLGRMKLDVGKVLQASVLDDWFPLQGGQGQVHLRLEWLSLLSDAEKLEQVLQWNWGVSSRPDPPSAAILVVYLDRAQDLPLKKGNKEPNPMVQLSIQDVTQESKAVYSTNCPVWEEAFRFFLQDPQSQELDVQVKDDSRALTLGALTLPLARLLTAPELILDQWFQLSSSGPNSRLYMKLVMRILYLDSSEICFPTVPGCPGAWDVDSENPQRGSSVDAPPRPCHTTPDSQFGTEHVLRIHVLEAQDLIAKDRFLGGLVKGKSDPYVKLKLAGRSFRSHVVREDLNPRWNEVFEVIVTSVPGQELEVEVFDKDLDKDDFLGRCKVRLTTVLNSGFLDEWLTLEDVPSGRLHLRLERLTPRPTAAELEEVLQVNSLIQTQKSAELAAALLSIYMERAEDLPLRKGTKHLSPYATLTVGDSSHKTKTISQTSAPVWDESASFLIRKPHTESLELQVRGEGTGVLGSLSLPLSELLVADQLCLDRWFTLSSGQGQVLLRAQLGILVSQHSGVEAHSHSYSHSSSSLSEEPELSGGPPHITSSAPELRQRLTHVDSPLEAPAGPLGQVKLTLWYYSEERKLVSIVHGCRSLRQNGRDPPDPYVSLLLLPDKNRGTKRRTSQKKRTLSPEFNERFEWELPLDEAQRRKLDVSVKSNSSFMSRERELLGKVQLDLAETDLSQGVARWYDLMDNKDKGSS
B6: SEPTIN2 (protein, UniProt Q15019 1-361)
chain: MSKQQPTQFINPETPGYVGFANLPNQVHRKSVKKGFEFTLMVVGESGLGKSTLINSLFLTDLYPERVIPGAAEKIERTVQIEASTVEIEERGVKLRLTVVDTPGYGDAINCRDCFKTIISYIDEQFERYLHDESGLNRRHIIDNRVHCCFYFISPFGHGLKPLDVAFMKAIHNKVNIVPVIAKADTLTLKERERLKKRILDEIEEHNIKIYHLPDAESDEDEDFKEQTRLLKASIPFSVVGSNQLIEAKGKKVRGRLYPWGVVEVENPEHNDFLKLRTMLITHMQDLQEVTQDLHYENFRSERLKRGGRKVENEDMNKDQILLEKEAELRRMQEMIARMQAQMQMQMQGGDGDGGALGHHV
B7: SEPTIN7 (protein, UniProt Q16181 1-437)
chain: MSVSARSAAAEERSVNSSTMVAQQKNLEGYVGFANLPNQVYRKSVKRGFEFTLMVVGESGLGKSTLINSLFLTDLYSPEYPGPSHRIKKTVQVEQSKVLIKEGGVQLLLTIVDTPGFGDAVDNSNCWQPVIDYIDSKFEDYLNAESRVNRRQMPDNRVQCCLYFIAPSGHGLKPLDIEFMKRLHEKVNIIPLIAKADTLTPEECQQFKKQIMKEIQEHKIKIYEFPETDDEEENKLVKKIKDRLPLAVVGSNTIIEVNGKRVRGRQYPWGVAEVENGEHCDFTILRNMLIRTHMQDLKDVTNNVHYENYRSRKLAAVTYNGVDNNKNKGQLTKSPLAQMEEERREHVAKMKKMEMEMEQVFEMKVKEKVQKLKDSEAELQRRHEQMKKNLEAQHKELEEKRRQFEDEKANWEAQQRILEQQNSSRTLEKNKKKGKIF
B8: SEPTIN9 (protein, UniProt Q9UHD8 1-586)
chain: MKKSYSGGTRTSSGRLRRLGDSSGPALKRSFEVEEVETPNSTPPRRVQTPLLRATVASSTQKFQDLGVKNSEPSARHVDSLSQRSPKASLRRVELSGPKAAEPVSRRTELSIDISSKQVENAGAIGPSRFGLKRAEVLGHKTPEPAPRRTEITIVKPQESAHRRMEPPASKVPEVPTAPATDAAPKRVEIQMPKPAEAPTAPSPAQTLENSEPAPVSQLQSRLEPKPQPPVAEATPRSQEATEAAPSCVGDMADTPRDAGLKQAPASRNEKAPVDFGYVGIDSILEQMRRKAMKQGFEFNIMVVGQSGLGKSTLINTLFKSKISRKSVQPTSEERIPKTIEIKSITHDIEEKGVRMKLTVIDTPGFGDHINNENCWQPIMKFINDQYEKYLQEEVNINRKKRIPDTRVHCCLYFIPATGHSLRPLDIEFMKRLSKVVNIVPVIAKADTLTLEERVHFKQRITADLLSNGIDVYPQKEFDEDSEDRLVNEKFREMIPFAVVGSDHEYQVNGKRILGRKTKWGTIEVENTTHCEFAYLRDLLIRTHMQNIKDITSSIHFEAYRVKRLNEGSSAMANGMEEKEPEAPEM

Biological target: FMNL2-birA* fusion protein (human) (UniProt Q96PY5)
Assay: proximity labelling; BioID screen with SILAC: FMNL2-birA* (Heavy) against FMNL2-mCherry control (Light), transiently expressed in HEK293T/17; 50 μM biotin for 16 h; low-salt RIPA lysate; streptavidin-agarose capture; in-gel trypsin digest and LC-MS/MS; hits with SILAC ratios twofold above the median, filtered for known contaminants

**Q.** Which binding does the source give for ARPIN (from UniProt Q7Z6K5 1-226) here?
**A.** binds

**Q.** BAIAP2 (from UniProt Q9UQB8 1-552) was tested. Which binding did it give?
**A.** binds

**Q.** CHMP2B (from UniProt Q9UQN3 1-213) was tested. Which binding did it give?
**A.** binds

**Q.** With CHMP5 (from UniProt Q9NZZ3 1-219) as the molecule, how does the binding read?
**A.** binds

**Q.** Which binding does the source give for CKAP5 (from UniProt Q14008 1-2032) here?
**A.** binds

**Q.** CTNNB1 (from UniProt P35222 1-781) was tested. Which binding did it give?
**A.** binds

**Q.** With DBNL (from UniProt Q9UJU6 1-430) as the molecule, how does the binding read?
**A.** binds

**Q.** For ENAH (from UniProt Q8N8S7 1-591), which binding is on record?
**A.** binds

**Q.** Which binding does the source give for FERMT2 (from UniProt Q96AC1 1-680) here?
**A.** binds

**Q.** For “PVRL2 (Nectin-2) (from UniProt Q92692 32-538)”, which binding is on record?
**A.** binds

**Q.** With “PVRL3 (Nectin-3) (from UniProt Q9NQS3 58-549)” as the molecule, how does the binding read?
**A.** binds

**Q.** For SNAP23 (from UniProt O00161 1-211), which binding is on record?
**A.** binds

**Q.** Which binding does the source give for SNX1 (from UniProt Q13596 1-522) here?
**A.** binds

**Q.** For SNX9 (from UniProt Q9Y5X1 1-595), which binding is on record?
**A.** binds

**Q.** With VAMP2 (from UniProt P63027 1-116) as the molecule, how does the binding read?
**A.** binds

**Q.** Which binding does the source give for VAMP3 (from UniProt Q15836 1-100) here?
**A.** binds

**Q.** For cortactin (from UniProt Q14247 1-550), which binding is on record?
**A.** binds

**Q.** How did the binding turn out when “β1-integrin (from UniProt P05556 21-798)” was run?
**A.** binds

**Q.** How did the binding turn out when B1 was run?
**A.** binds

**Q.** B2 was tested. Which binding did it give?
**A.** binds

**Q.** How did the binding turn out when B3 was run?
**A.** binds

**Q.** B4 was tested. Which binding did it give?
**A.** binds

**Q.** For B5, which binding is on record?
**A.** binds

**Q.** B6 was tested. Which binding did it give?
**A.** binds

**Q.** With B7 as the molecule, how does the binding read?
**A.** binds

**Q.** For B8, which binding is on record?
**A.** binds

These are yes or no findings as the source states them, for the method shown. In cells and extracts the contact can be indirect. A yes stands for co-enrichment or nearness to the bait. Other partners may have been found.
